Reference: article PMC9066070, “RGI‐GOLVEN signaling promotes cell surface immune receptor abundance to regulate plant immunity” (EMBO Reports, 2022)
No constants are given. Whether binding was seen depends on the method and setting. Binding seen in cells or lysates may run through a third protein. Some binding calls cover weakened binding; strength is not graded here. Where a sequence is shown, tags or fusion partners need not be part of it.

Chains of the proteins cited; added tags and fusions are not shown. Residues count along the entry.
UniProt Q9FL28, residues 24-1173: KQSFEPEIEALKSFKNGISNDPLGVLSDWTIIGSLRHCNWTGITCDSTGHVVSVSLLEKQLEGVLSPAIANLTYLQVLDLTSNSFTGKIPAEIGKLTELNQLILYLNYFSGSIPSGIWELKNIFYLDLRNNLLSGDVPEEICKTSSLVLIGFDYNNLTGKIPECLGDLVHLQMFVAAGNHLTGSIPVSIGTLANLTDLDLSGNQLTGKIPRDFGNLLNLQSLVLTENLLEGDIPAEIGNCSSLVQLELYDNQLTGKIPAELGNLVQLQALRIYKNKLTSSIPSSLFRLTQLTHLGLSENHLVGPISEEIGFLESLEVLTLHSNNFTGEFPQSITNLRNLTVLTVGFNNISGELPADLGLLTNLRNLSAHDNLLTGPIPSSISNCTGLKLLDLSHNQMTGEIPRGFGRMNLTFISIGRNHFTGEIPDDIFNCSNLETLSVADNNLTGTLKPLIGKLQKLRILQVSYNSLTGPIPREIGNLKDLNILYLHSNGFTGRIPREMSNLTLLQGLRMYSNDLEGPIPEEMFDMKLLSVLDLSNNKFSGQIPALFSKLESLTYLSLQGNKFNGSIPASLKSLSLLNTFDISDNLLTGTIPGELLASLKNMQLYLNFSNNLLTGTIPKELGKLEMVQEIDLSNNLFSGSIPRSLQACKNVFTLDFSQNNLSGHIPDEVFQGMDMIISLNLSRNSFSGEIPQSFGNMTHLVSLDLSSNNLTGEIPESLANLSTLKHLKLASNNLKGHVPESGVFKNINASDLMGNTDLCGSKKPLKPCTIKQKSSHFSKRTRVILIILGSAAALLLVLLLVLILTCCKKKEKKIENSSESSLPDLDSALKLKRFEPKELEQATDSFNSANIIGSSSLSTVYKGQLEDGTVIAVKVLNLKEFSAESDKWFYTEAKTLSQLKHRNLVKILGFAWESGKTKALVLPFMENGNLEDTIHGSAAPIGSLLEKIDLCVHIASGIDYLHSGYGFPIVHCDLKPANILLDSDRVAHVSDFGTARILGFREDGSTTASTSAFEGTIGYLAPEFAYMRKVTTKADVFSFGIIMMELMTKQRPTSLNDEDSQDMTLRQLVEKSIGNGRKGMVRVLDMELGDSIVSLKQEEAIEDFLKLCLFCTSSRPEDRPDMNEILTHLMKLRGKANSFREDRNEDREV

Legend:
[1] = biological target: T1, RGI3-GFP (Arabidopsis thaliana) (UniProt C0LGR3); test: co-IP
T1 sequence: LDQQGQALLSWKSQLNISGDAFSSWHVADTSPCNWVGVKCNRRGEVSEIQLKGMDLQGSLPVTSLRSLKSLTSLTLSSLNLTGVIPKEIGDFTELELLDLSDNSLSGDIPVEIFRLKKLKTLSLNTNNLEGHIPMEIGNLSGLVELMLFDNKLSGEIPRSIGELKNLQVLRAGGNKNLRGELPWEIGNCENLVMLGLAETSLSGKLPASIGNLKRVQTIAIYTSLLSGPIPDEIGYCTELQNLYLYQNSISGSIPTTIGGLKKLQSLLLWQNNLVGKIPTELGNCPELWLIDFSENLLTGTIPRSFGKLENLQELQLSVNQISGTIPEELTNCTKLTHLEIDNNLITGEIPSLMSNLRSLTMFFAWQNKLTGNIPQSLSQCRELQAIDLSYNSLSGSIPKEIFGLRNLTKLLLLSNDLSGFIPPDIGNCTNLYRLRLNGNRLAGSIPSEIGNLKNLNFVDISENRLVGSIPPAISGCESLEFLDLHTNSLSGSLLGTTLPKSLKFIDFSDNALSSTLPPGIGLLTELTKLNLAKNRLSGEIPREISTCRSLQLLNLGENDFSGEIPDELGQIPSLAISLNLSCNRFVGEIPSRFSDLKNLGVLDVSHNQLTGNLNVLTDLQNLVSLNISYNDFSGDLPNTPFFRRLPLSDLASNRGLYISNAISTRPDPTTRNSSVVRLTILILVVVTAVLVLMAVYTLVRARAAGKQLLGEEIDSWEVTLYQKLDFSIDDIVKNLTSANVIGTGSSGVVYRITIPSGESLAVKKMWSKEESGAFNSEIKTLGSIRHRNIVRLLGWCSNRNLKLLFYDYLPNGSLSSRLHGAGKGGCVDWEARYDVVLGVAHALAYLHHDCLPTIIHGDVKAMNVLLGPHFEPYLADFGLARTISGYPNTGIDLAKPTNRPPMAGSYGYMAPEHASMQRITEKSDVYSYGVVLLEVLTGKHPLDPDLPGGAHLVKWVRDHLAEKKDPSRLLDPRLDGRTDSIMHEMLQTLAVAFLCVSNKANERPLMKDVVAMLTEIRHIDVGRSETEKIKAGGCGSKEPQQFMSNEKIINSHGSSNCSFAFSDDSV

[2] = biological target: T2, CLV1-GFP (Arabidopsis thaliana) (UniProt Q9SYQ8); test: co-IP; FLS2-HA co-expressed with CLV1-GFP or RGI3-GFP in N. benthamiana, no ligand named; IP with GFP-TRAP beads, blots with α-GFP and α-HA
T2 sequence: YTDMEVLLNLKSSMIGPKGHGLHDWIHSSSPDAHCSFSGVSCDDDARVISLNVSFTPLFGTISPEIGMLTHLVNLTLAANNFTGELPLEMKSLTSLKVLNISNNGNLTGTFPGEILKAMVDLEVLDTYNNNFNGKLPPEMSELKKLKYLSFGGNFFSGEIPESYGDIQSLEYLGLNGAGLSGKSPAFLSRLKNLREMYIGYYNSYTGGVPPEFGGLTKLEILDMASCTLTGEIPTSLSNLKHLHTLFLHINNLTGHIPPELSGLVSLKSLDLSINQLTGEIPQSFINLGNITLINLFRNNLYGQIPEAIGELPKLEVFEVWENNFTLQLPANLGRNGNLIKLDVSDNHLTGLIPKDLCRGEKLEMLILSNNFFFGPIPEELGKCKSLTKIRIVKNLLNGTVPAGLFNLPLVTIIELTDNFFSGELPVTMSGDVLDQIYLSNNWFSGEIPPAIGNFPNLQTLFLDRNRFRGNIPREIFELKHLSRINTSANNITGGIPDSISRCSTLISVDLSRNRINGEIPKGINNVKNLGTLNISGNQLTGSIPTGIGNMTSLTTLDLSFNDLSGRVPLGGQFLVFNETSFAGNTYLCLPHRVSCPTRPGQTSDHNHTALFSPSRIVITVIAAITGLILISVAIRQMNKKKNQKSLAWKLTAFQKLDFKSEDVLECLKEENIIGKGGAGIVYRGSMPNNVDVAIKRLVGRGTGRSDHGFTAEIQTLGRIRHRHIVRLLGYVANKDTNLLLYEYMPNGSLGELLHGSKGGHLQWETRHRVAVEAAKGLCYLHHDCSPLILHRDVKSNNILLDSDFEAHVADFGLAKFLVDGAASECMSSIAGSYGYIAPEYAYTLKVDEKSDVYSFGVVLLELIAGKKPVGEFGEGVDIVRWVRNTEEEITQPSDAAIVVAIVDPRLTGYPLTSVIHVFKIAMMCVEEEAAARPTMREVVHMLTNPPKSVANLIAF

[3] = biological target: T1, RGI3-GFP (Arabidopsis thaliana); test: as above

FLS2-HA (from UniProt Q9FL28 24-1173) (receptor)
binding [1]: binds
binding [2]: no binding
binding [3]: binds weakly
